For this assay, the target named is CLEC-36 (C. elegans) (UniProt Q4ZGE4). In words: co-IP.

The chains behind the UniProt entries cited, without tags or fusion partners. Where a name states a change or a piece, a line headed by the entry shows the natural chain unless it says otherwise.
UniProt Q4ZGE4: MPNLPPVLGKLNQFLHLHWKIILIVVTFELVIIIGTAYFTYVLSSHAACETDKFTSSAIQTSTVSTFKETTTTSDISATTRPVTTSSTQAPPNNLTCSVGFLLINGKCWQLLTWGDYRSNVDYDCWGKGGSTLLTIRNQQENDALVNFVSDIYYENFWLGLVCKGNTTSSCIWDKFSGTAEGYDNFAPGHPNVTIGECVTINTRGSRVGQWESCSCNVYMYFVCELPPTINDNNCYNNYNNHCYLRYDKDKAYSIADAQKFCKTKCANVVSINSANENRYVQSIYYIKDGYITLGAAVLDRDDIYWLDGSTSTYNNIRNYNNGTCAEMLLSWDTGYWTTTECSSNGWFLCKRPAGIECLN
UniProt Q9XUN6: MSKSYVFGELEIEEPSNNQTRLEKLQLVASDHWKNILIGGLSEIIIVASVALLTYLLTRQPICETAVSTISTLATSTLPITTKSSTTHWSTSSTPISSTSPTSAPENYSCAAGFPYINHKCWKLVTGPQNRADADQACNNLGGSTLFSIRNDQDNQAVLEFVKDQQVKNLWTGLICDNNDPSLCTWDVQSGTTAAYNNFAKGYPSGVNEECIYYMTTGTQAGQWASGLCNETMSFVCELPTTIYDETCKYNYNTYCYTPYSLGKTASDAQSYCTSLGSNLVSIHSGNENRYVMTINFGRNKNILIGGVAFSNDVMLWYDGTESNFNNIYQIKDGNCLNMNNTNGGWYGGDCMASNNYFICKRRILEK

Results are given in words; binding and its absence hold for the method and conditions named. Binding seen in cells or lysates may run through a third protein. Binding can be weak; no strength is given.

In the case of “CLEC-26 (from UniProt Q9XUN6) (receptor)”, the binding entry is recorded as “binds”.
